Results published in PubChem BioAssay AID2417 (National Center for Advancing Translational Sciences (NCATS), 2010).
About 4,300 (3.1%) of roughly 140,000 compounds were called active. Inconclusive results, whose numbers are uncertain, are shown with a selection of clear calls.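 The calls were made as follows: active = readout at or below -70, meaning at least 70% loss of cells showing the perinucleolar compartment, a nuclear body marking cancer cells; inconclusive = readout between -30 and a set limit; inactive = the rest.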

experiment: High Content Assay for Compounds that inhibit the Assembly of the Perinucleolar Compartment; details: PC3M PTB-GFP, PNC prevalence imaging, 16 h; at 10 µM; stronger effect = lower value;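 also: plate controls were DMSO wells for no effect and camptothecin positive control wells for full effect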
Method in brief: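 Read-out is percentage of cells bearing a perinucleolar compartment, from automated 20x imaging of fixed, Hoechst-stained PC3M PTB-GFP cells. Cells were seeded 4 h, then exposed 16 h to compound (23 nl of library stock) in duplicate plates.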

Structure (SMILES) | activity change (PNC), negative = inhibition
CC1CCc2c(sc3nc(CN4CCOCC4)nc(Sc4ccccc4)c23)C1 (centres undefined) | inactive: 10.7%
CC(C)(C)c1ccc2c(c1)N(CC(=O)O)C(=O)CO2 | inactive: 7.53%
COc1ccc(NC(=S)NC2CCS(=O)(=O)C2)cc1 (centres undefined) | inactive: 36.6%
COc1cccc(NC(=O)CSc2nc3ccccc3c(=O)n2Cc2cccs2)c1 | inactive: -6.98%
N#C/C(=C\c1cc(Cl)cc(Cl)c1O)C(=O)NC1CCCCC1 | inactive: -11.7%
Cc1ccc(C(=O)NCCCNc2ccc(C(F)(F)F)cc2[N+](=O)[O-])cc1 | inconclusive: -57.5%
CCn1ncc(Br)c1C(=O)Nc1ccc(C(=O)OC(C)C)cc1 | inconclusive: -42.5%
COc1ccc(-c2[nH]ncc2-c2ccc3c(c2)OCCO3)c(O)c1 | inactive: 20.4%
O=C(c1ccc2c(=O)n(Cc3ccc4c(c3)OCO4)c(=S)[nH]c2c1)N1CCCCC1 | inconclusive: -69.2%
O=C(c1ccc(=O)n(Cc2ccccc2)n1)N1CCN(C/C=C/c2ccccc2)CC1 | active: -107%
CCN(CC)C(=O)Nc1ccc(C(=O)OC)cc1 | inconclusive: -63.7%
CCOc1ccc(NC(=NCc2ccc3c(c2)OCO3)SC2CC(=O)N(c3ccc(OCC)cc3)C2=O)cc1 (centres undefined) | inactive: 125%
COc1ccccc1CN(CC(=O)NCc1ccc2c(c1)OCO2)C(=O)c1ccc2c(c1)OCCO2 | inactive: 46.4%
COc1cc(C(=O)Nc2cccc(-c3nc4cc(C)ccc4o3)c2)cc(OC)c1OC | inconclusive: -38.9%
O=C(Nc1cccnc1)c1cccc(NC(=O)c2ccco2)c1 | inconclusive: -53.3%
Clc1ccc(-c2csc(N/N=C/c3cccnc3)n2)c(Cl)c1 | inactive: -6.25%
C=CCn1c(Cc2cccs2)nnc1SCC(=O)Nc1ccc(OC)c(OC)c1 | inconclusive: -52.3%
CCCc1cc2c(=O)c(-c3ccc4c(c3)OCCO4)c(C)oc2cc1OS(C)(=O)=O | inconclusive: -31.1%
CCOc1ccccc1CNS(=O)(=O)c1ccc2[nH]c(=O)sc2c1 | active: -107%
COc1ccc(OC)c2sc(N3CCCCC3)nc12 | inactive: -17.7%
Cc1cccc(NC(=O)CN2CCCN(S(=O)(=O)c3ccc(Br)s3)CC2)c1 | inconclusive: -31.5%
CCOc1ncccc1C(=O)OCC(=O)NCCc1ccccc1 | inconclusive: -38.7%

Structure (SMILES) | activity change (PNC), negative = inhibition
COc1ccc(NC(=O)/C(C#N)=C/c2c(C)nn(-c3ccc(F)cc3)c2Cl)cc1Cl | active: -83.4%
Cc1ccc(-c2csc3nnc(SCC(=O)NCc4ccco4)n23)cc1 | inconclusive: -38.5%
Cc1cccc(CSc2cccc3cccnc23)c1 | inactive: 42.6%
c1cncc(-c2nc(-c3ccco3)cs2)c1 | inactive: 9.19%
CN(C)c1cccc(C(=O)Nc2cccc(F)c2)c1 | inconclusive: -67.2%
CC1CCN(S(=O)(=O)c2ccc3c(c2)oc(=O)n3CC(=O)N2c3ccccc3CC2C)CC1 (centres undefined) | inactive: -11%
Cc1cccc2cc(CN(CC3CCCO3)C(=O)NC3CCCCC3)c(=O)[nH]c12 (centres undefined) | inactive: 16%
COC(=O)c1cccc(COC(=O)c2cccnc2SC)c1 | inactive: 17.6%
CCc1cccc(CC)c1NC(=S)NCc1ccc2c(c1)OCO2 | inconclusive: -39.3%
CCCc1nn(C)c(C(=O)Nc2cccc(Cl)c2)c1Cl | inactive: 83%
CC1=CCC(Cc2nc3ccccc3o2)C1(C)C (centres undefined) | inconclusive: -61.2%
O=C1NC(NS(=O)(=O)c2ccccc2)(C(F)(F)F)C(=O)N1c1ccc(F)cc1 (centres undefined) | inconclusive: -36.3%
O=C(O[C@@H]1OC2COC(=O)c3cc(O)c(O)c(O)c3-c3c(cc(O)c(O)c3O)C(=O)O[C@@H]([C@H]1O)[C@@H]2O)c1cc(O)c(O)c(O)c1 | inactive: 47.6%
Cc1ccc([N+](=O)[O-])c(OCC(=O)OCC(=O)c2ccccc2)c1 | inconclusive: -59.4%
O=C(/C=C/c1ccccc1)N1CCN(c2c(Cl)cccc2[N+](=O)[O-])CC1 | inconclusive: -54.2%
Cc1cc(Cl)cc(Br)c1OCCCN1C(=O)NC(C)(C)C1=O | active: -80.5%
O=C(CO/N=C/c1ccc(OC(F)F)cc1)N1CCc2ccccc21 | inconclusive: -77.5%
CCCC(C(=O)NC1CCCC1)N(Cc1cccs1)C(=O)c1snc(C(N)=O)c1N (centres undefined) | inconclusive: -47.2%
CCC(=O)N1CCc2cc(Br)cc(S(=O)(=O)N3CCCCCC3)c21 | active: -100%
CC(C)Cn1cnc2c1c(=O)n(CC(=O)Nc1ccc3c(c1)OCO3)c(=O)n2Cc1ccccc1 | inconclusive: -40.6%
CCOc1ccc(N(CC(=O)Nc2cccc(Cl)c2)S(=O)(=O)c2c(C)noc2C)cc1 | inconclusive: -33.1%
OC(COCC1COc2ccccc2O1)CN1CCCCC1 (centres undefined) | inconclusive: -37.1%

Exported as labelled records: entries from further up
O=C(Nc1cccnc1)c1cccc(NC(=O)c2ccco2)c1
  activity change (PNC), negative = inhibition: inconclusive: -53.3%
Cc1ccc(-c2csc3nnc(SCC(=O)NCc4ccco4)n23)cc1
  activity change (PNC), negative = inhibition: inconclusive: -38.5%
